Laboratory results published in the supplement of paper PMC4604168 (melanoma cell lines).
Some of the results follow. Repeats are few or missing, and single values can be far off.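 The apoptosis fraction was the count of cleaved-PARP antibody-stained nuclei relative to all DNA-stained nuclei, imaged in 1,536-well plates. Screening doses were set so most cells survived, and baseline and induced cleaved-PARP levels vary greatly across cell lines.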

Each molecule was assayed on WM1716 (assay: cleaved PARP positive nuclei fraction relative to DMSO control; melanoma cells; higher = more apoptosis). Settings: library dose: low library concentration; 72 h.

| Structure (SMILES) | cleaved PARP positive nuclei fraction [%] |
| --- | --- |
| Cc1cc(N2CCOCC2)cc2[nH]c(-c3c(NC[C@@H](O)c4cccc(Cl)c4)cc[nH]c3=O)nc12 + CCc1ccc(CCOc2ccc(CC3SC(=O)NC3=O)cc2)nc1 [pioglitazone] (first compound 0.2 µM, partner dose 2 µM) | 139 |
| O=C(CCCCCCC(=O)Nc1ccccc1)NO [vorinostat] + OCCn1cc(-c2cnc3nnn(Cc4ccc5ncccc5c4)c3n2)cn1 [PF04217903] (first compound 0.08 µM, partner dose 1 µM) | 244 |
| Cc1cc(N2CCOCC2)cc2[nH]c(-c3c(NC[C@@H](O)c4cccc(Cl)c4)cc[nH]c3=O)nc12 + Cc1cc([N+](=O)[O-])ccc1NS(=O)(=O)c1cc(Cl)ccc1Cl [FH535] (first compound 0.2 µM, partner dose 1 µM) | 58.4 |
| CC(=O)c1c(C)c2cnc(Nc3ccc(N4CCNCC4)cn3)nc2n(C2CCCC2)c1=O [palbociclib] + Nc1cccc2c1CN(C1CCC(=O)NC1=O)C2=O [lenalidomide] (first compound 0.04 µM, partner dose 1 µM) | 48.3 |
| C=CCNC1=C2C[C@@H](C)C[C@H](OC)[C@H](O)[C@@H](C)/C=C(\C)[C@H](OC(N)=O)[C@@H](OC)/C=C\C=C(/C)C(=O)NC(=CC1=O)C2=O [Tanespimycin] + COC(=O)c1sccc1S(=O)(=O)Nc1ccc(Nc2ccccc2)cc1OC [GSK0660] (first compound 0.002 µM, partner dose 1 µM) | 87.1 |
| Clc1ccc(Nc2nnc(Cc3ccncc3)c3ccccc23)cc1 [vatalanib] + C[C@]1(c2nc3c(C(N)=O)cccc3[nH]2)CCCN1 [Veliparib] (first compound 2 µM, partner dose 1.4 µM) | 289 |
| COCC[n+]1c2c(n(Cc3cnccn3)c1C)C(=O)c1ccccc1C2=O + NC(=O)Nc1cc(-c2cccc(F)c2)sc1C(=O)N[C@H]1CCCNC1 [AZD7762] (first compound 0.0004 µM, partner dose 0.02 µM) | 107 |
| Cn1c(Nc2ccc(C(F)(F)F)cc2)nc2cc(Oc3ccnc(-c4ncc(C(F)(F)F)[nH]4)c3)ccc21 + CCN(CC)CCCCNc1ncc2cc(-c3cc(OC)cc(OC)c3)c(NC(=O)NC(C)(C)C)nc2n1 [PD173074] (first compound 0.08 µM, partner dose 0.1 µM) | 126 |
| CC(C)(C)c1cnc(CSc2cnc(NC(=O)C3CCNCC3)s2)o1 + CCc1ccc(CCOc2ccc(CC3SC(=O)NC3=O)cc2)nc1 [pioglitazone] (first compound 0.01 µM, partner dose 2 µM) | 139 |
| C[C@]1(c2nc3c(C(N)=O)cccc3[nH]2)CCCN1 [Veliparib] + COc1ccc(COc2ccc(Cc3cnc(N)nc3N)cc2OC)cc1 [GW2580] (first compound 1.4 µM, partner dose 1 µM) | 102 |
| Cc1ccc(NC(=O)c2cccc(N(C)C)c2)cc1NC(=O)c1ccc(O)cc1 + NCC(=O)Nc1ccc(-n2nc(C(F)(F)F)cc2-c2ccc3c(ccc4ccccc43)c2)cc1 [OSU03012] (first compound 2 µM, partner dose 1 µM) | 141 |

Part of the list above in another layout:
Structure (SMILES)	cleaved PARP positive nuclei fraction [%]
Clc1ccc(Nc2nnc(Cc3ccncc3)c3ccccc23)cc1 [vatalanib] + C[C@]1(c2nc3c(C(N)=O)cccc3[nH]2)CCCN1 [Veliparib] (first compound 2 µM, partner dose 1.4 µM)	289
C[C@]1(c2nc3c(C(N)=O)cccc3[nH]2)CCCN1 [Veliparib] + COc1ccc(COc2ccc(Cc3cnc(N)nc3N)cc2OC)cc1 [GW2580] (first compound 1.4 µM, partner dose 1 µM)	102
